These results are taken from the supplement of paper PMC4635364.

Structures are written as SMILES. Where a name gives a salt, the structure may show the parent alone. Some of the results follow. Single values are uncertain here, since repeats match poorly.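 Human fetal ventral-midbrain neural progenitor line ReNCell VM, differentiated without mitogens. Images stained for doublecortin (early neurons) or tyrosine hydroxylase (dopaminergic neurons) were scored by blinded raters against untreated wells (0 = no change). Repeats and both raters were averaged, and compounds averaging 2 or higher were picked as hits for retesting.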

The first experiment has as its system ReNCell VM. Put plainly: neuronal differentiation score (DCX+ cell fraction vs untreated, manual image score) (score (-3 to 3)); higher = more neuronal differentiation. Particulars: library: LOPAC; 2 uM; 2 weeks.
Turning to `O=C1OC(=O)[C@H]2[C@@H]1[C@@H]1CC[C@H]2O1` [Norcantharidin], the neuronal differentiation score is inactive: -2.

Take `CC1=C(C(=O)O)N2C(=O)[C@@H](NC(=O)[C@H](N)c3ccccc3)[C@H]2SC1` [Cephalexin hydrate]: the neuronal differentiation score was inactive: -1.

Regarding `Nc1ncnc2c1ncn2C1CCCC1` [9-cyclopentyladenine], the neuronal differentiation score was inactive: 0.

For the compound `CCCCCCCC/C=C\CCCCCCCC(=O)O` [Oleic Acid], the neuronal differentiation score is inactive: 0.

Take `CCCCC[C@H](CC(=O)NO)C(=O)N[C@H](C(=O)N1CCC[C@H]1CO)C(C)C` [Actinonin]: the neuronal differentiation score was inactive: 0.

As to `CCCCN1CCC(COC(=O)c2cc(Cl)c(N)c3c2OCCO3)CC1`, the neuronal differentiation score is inactive: 0.

`N#CC(C#N)=C(N)/C(C#N)=C/c1ccc(O)cc1` [Tyrphostin AG 112]: the neuronal differentiation score is inactive: 0.

Still in this experiment, the particulars now being: library: Prestwick; 2 uM; 2 weeks.
On to `CCCC(=O)Nc1ncnc2c1ncn2[C@@H]1O[C@@H]2COP(=O)(O)O[C@H]2[C@H]1OC(=O)CCC` [Bucladesine sodium salt], for which the neuronal differentiation score is inactive: 0.

Regarding `C[C@H](N)[C@H](O)c1cccc(O)c1` [Metaraminol bitartrate], the neuronal differentiation score was inactive: 0.

Regarding `CN(C)CCC(c1ccc(Br)cc1)c1ccccn1` (stereo not drawn) [Brompheniramine maleate], the neuronal differentiation score is inactive: 0.

Turning to `Clc1ccccc1CN1CCc2sccc2C1` [Ticlopidine hydrochloride], the neuronal differentiation score was inactive: 0.

With `COc1nc(C)nc(Cl)c1NC1=NCCN1` [Moxonidine], the neuronal differentiation score was inactive: 0.

The same experiment, now with this note: library: Spectrum; 2 uM; 2 weeks.
On to `NC(=O)N/N=C/c1ccc([N+](=O)[O-])o1`, for which the neuronal differentiation score is inactive: 0.

Turning to `c1ccc2c(CC3=NCCN3)cccc2c1`, the neuronal differentiation score is inactive: 0.

Take `CC(C)(O)CC[C@@H](O)[C@](C)(O)[C@H]1CC[C@@]2(O)C3=CC(=O)[C@@H]4C[C@@H](O)[C@@H](O)C[C@]4(C)[C@H]3CC[C@]12C`: the neuronal differentiation score is inactive: 0.

Consider `Cc1cnc(NC(=O)C2=C(O)c3ccccc3S(=O)(=O)N2C)s1`, for which the neuronal differentiation score is inactive: -1.

With `Cc1cccc(C)c1NC(=O)C(C)N` (stereo not drawn), the neuronal differentiation score is inactive: 0.

Take `CCOc1ccc2nc3cc(N)ccc3c(N)c2c1`: the neuronal differentiation score is inactive: 0.

As to `O=C(O)CN(CC(=O)O)Cc1cc2c(cc1O)Oc1cc(O)c(CN(CC(=O)O)CC(=O)O)cc1C21OC(=O)c2ccccc21`, the neuronal differentiation score was inactive: 0.

Take `CC(=O)[C@@]1(O)CC[C@H]2[C@@H]3CCC4=CC(=O)CC[C@]4(C)[C@H]3CC[C@@]21C`: the neuronal differentiation score was inactive: 0.

For `NC(=O)c1ccc[n+]([C@@H]2O[C@H](COP(=O)([O-])OP(=O)(O)OC[C@H]3O[C@@H](n4cnc5c(N)ncnc54)[C@H](O)[C@@H]3O)[C@@H](O)[C@H]2O)c1`, the neuronal differentiation score was inactive: 0.

Consider `CCNC(=O)/C=C/c1cccc(Br)c1`, for which the neuronal differentiation score is inactive: 0.

Regarding `CC(=O)O[C@H]1CC[C@@]2(C)[C@H](CC[C@@H]3[C@@H]2CC[C@]2(C)[C@@H]4[C@H](C[C@@H]32)O[C@]2(CC[C@@H](C)CO2)[C@H]4C)C1`, the neuronal differentiation score was inactive: 0.

Take `OC(CCN1CCCCC1)(c1ccccc1)c1ccccc1`: the neuronal differentiation score is inactive: 0.

For the compound `CN1CCc2cccc3c2[C@H]1Cc1ccc(O)c(O)c1-3`, the neuronal differentiation score is inactive: 0.

Turning to `COC(=O)N/N=C/c1c[n+]([O-])c2ccccc2[n+]1[O-]`, the neuronal differentiation score is inactive: 1.

On to `CC1COc2c(N3CCN(C)CC3)c(F)cc3c(=O)c(C(=O)O)cn1c23` (stereo not drawn), for which the neuronal differentiation score was inactive: -1.

On to `Nc1ccc(S(=O)(=O)Nc2ccccn2)cc1`, for which the neuronal differentiation score is inactive: 0.

As for `CCCCS(=N)(=O)CCC(N)C(=O)O` (stereo not drawn), the neuronal differentiation score is inactive: 0.

Turning to `NC12CC3CC(CC(C3)C1)C2`, the neuronal differentiation score is inactive: 0.

On to `CC(C)NC[C@@H](O)COc1cccc2ccccc12`, for which the neuronal differentiation score was inactive: 0.

As to `CC(=O)OCC1=C(C(=O)O)N2C(=O)[C@@H](NC(=O)CSc3ccncc3)[C@H]2SC1`, the neuronal differentiation score is inactive: 0.

The same experiment, now with this note: library: Tocriscreen; 2 uM; 2 weeks.
In the case of `CCOc1cc(C(=O)Nc2ccc(Cl)c(-c3nc4ccccc4[nH]3)c2)cc(OCC)c1OCC`, the neuronal differentiation score is inactive: 0.

As to `CCc1cc(-c2n[nH]c(C)c2-c2ccc3c(c2)OCCO3)c(O)cc1O`, the neuronal differentiation score was inactive: -1.

`CCOc1ccc(Nc2nc(-c3c(C)nc4ccccn34)cs2)cc1`: the neuronal differentiation score was inactive: 0.

With `COc1ccc(NS(=O)(=O)c2ccc(I)cc2)cc1N1CCN(C)CC1`, the neuronal differentiation score was inactive: 0.

For another experiment, the system named is ReNCell VM. Put plainly: dopaminergic neuron differentiation score (TH+ cell fraction vs untreated, manual image score) (score (0 to 3)); higher = more TH+ dopaminergic neuron differentiation. Particulars: library: LOPAC; 2 uM; 4 weeks; BDNF 10 ng/ml + GDNF 10 ng/ml.
As to `O=C1OC(=O)[C@H]2[C@@H]1[C@@H]1CC[C@H]2O1` [Norcantharidin], the “dopaminergic neuron differentiation score” value is inactive: 0.

As to `CC1=C(C(=O)O)N2C(=O)[C@@H](NC(=O)[C@H](N)c3ccccc3)[C@H]2SC1` [Cephalexin hydrate], the “dopaminergic neuron differentiation score” value was inactive: 0.

For `Nc1ncnc2c1ncn2C1CCCC1` [9-cyclopentyladenine], the “dopaminergic neuron differentiation score” value was inactive: 0.

With `CCCCCCCC/C=C\CCCCCCCC(=O)O` [Oleic Acid], the “dopaminergic neuron differentiation score” value is inactive: 0.

For the compound `CCCCC[C@H](CC(=O)NO)C(=O)N[C@H](C(=O)N1CCC[C@H]1CO)C(C)C` [Actinonin], the “dopaminergic neuron differentiation score” value was inactive: 0.

As for `CCCCN1CCC(COC(=O)c2cc(Cl)c(N)c3c2OCCO3)CC1`, the “dopaminergic neuron differentiation score” value is inactive: 0.

For `N#CC(C#N)=C(N)/C(C#N)=C/c1ccc(O)cc1` [Tyrphostin AG 112], the “dopaminergic neuron differentiation score” value was active: 3.
